From paper PMC7854729 (Nature Communications, 2021)
“And” between values parts separate entries of the source, which are not always exact repeats. Identical values can stand only once. Like-named read-outs stand apart in the source and are kept apart here. The source gives many values for each of these; only a part stands here. Where a SMILES comes first, the peptide text is derived from it.

Target: T1, PLpro-WT (Severe acute respiratory syndrome coronavirus 2, UniProt P0DTD1)
T1 construct: PLpro is a domain of Nsp3—a large multidomain protein; made in house; host or cells: E. coli BL21(DE3)-Gold
Format: biochemical

Which results are given for `CC(=O)N[C@@H](CC(C)C)C(=O)N[C@@H](CCCCN)C(=O)NCC(=O)NCC(=O)Nc1ccc2c(C)cc(=O)oc2c1` [probe] (HELM PEPTIDE1{[ac].L.K.G.G.[Cc1cc(=O)oc2cc(N[*:1])ccc12]}$$$$V2.0)?
fluorescence (0.5 M PLP, time point 31): 2240 and 2250 and 2181; fluorescence normalised to probe only (0.5 M PLP, time point 31): 46.6667 and 46.875 and 45.4375; fluorescence (0.5 M PLP, time point 32): 2269 and 2293 and 2227; fluorescence normalised to probe only (0.5 M PLP, time point 32): 47.2708 and 47.7708 and 46.3958; fluorescence (0.5 M PLP, time point 33): 2306 and 2327 and 2258; fluorescence normalised to probe only (0.5 M PLP, time point 33): 48.0417 and 48.4792 and 47.0417; fluorescence (0.5 M PLP, time point 34): 2335 and 2369 and 2300; fluorescence normalised to probe only (0.5 M PLP, time point 34): 48.6458 and 49.3542 and 47.9167; fluorescence (0.5 M PLP, time point 35): 2376 and 2398 and 2340; fluorescence normalised to probe only (0.5 M PLP, time point 35): 49.5 and 49.9583 and 48.75; fluorescence (0.5 M PLP, time point 36): 2406 and 2431 and 2373; fluorescence normalised to probe only (0.5 M PLP, time point 36): 50.125 and 50.6458 and 49.4375; fluorescence (0.5 M PLP, time point 37): 2445 and 2469 and 2392; fluorescence normalised to probe only (0.5 M PLP, time point 37): 50.9375 and 51.4375 and 49.8333; fluorescence (0.5 M PLP, time point 38): 2476 and 2500 and 2430; fluorescence normalised to probe only (0.5 M PLP, time point 38): 51.5833 and 52.0833 and 50.625; fluorescence (1.0 M PLP, time point 1): 405 and 400 and 401; fluorescence normalised to probe only (1.0 M PLP, time point 1): 8.4375 and 8.333 and 8.354; fluorescence (1.0 M PLP, time point 2): 657 and 642 and 650; fluorescence normalised to probe only (1.0 M PLP, time point 2): 13.6875 and 13.375 and 13.5417; fluorescence (1.0 M PLP, time point 3): 894 and 867 and 877; fluorescence normalised to probe only (1.0 M PLP, time point 3): 18.625 and 18.0625 and 18.2708; fluorescence (1.0 M PLP, time point 4): 1104 and 1076 and 1091; fluorescence normalised to probe only (1.0 M PLP, time point 4): 23 and 22.4167 and 22.7292; fluorescence (1.0 M PLP, time point 5): 1302 and 1264 and 1282; fluorescence normalised to probe only (1.0 M PLP, time point 5): 27.125 and 26.3333 and 26.7083; fluorescence (1.0 M PLP, time point 6): 1481 and 1448 and 1469; fluorescence normalised to probe only (1.0 M PLP, time point 6): 30.8542 and 30.1667 and 30.6042; fluorescence (1.0 M PLP, time point 7): 1657 and 1611 and 1632; fluorescence normalised to probe only (1.0 M PLP, time point 7): 34.5208 and 33.5625 and 34; fluorescence normalised to probe only (1.0 M PLP, time point 14): 53.0833 and 51.2292 and 52.3333; fluorescence (1.0 M PLP, time point 15): 2660 and 2552 and 2616; fluorescence normalised to probe only (1.0 M PLP, time point 15): 55.4167 and 53.1667 and 54.5; fluorescence (1.0 M PLP, time point 16): 2739 and 2646 and 2710; fluorescence normalised to probe only (1.0 M PLP, time point 16): 57.0625 and 55.125 and 56.4583; fluorescence (1.0 M PLP, time point 17): 2817 and 2719 and 2786; fluorescence normalised to probe only (1.0 M PLP, time point 17): 58.6875 and 56.6458 and 58.0417; fluorescence (1.0 M PLP, time point 18): 2883 and 2799 and 2867; fluorescence normalised to probe only (1.0 M PLP, time point 18): 60.0625 and 58.3125 and 59.7292; fluorescence (1.0 M PLP, time point 19): 2968 and 2847 and 2926; fluorescence normalised to probe only (1.0 M PLP, time point 19): 61.8333 and 59.3125 and 60.9583; fluorescence (1.0 M PLP, time point 20): 3033 and 2931 and 3008; fluorescence normalised to probe only (1.0 M PLP, time point 20): 63.1875 and 61.0625 and 62.6667; fluorescence (1.0 M PLP, time point 21): 3089 and 2981 and 3065; fluorescence normalised to probe only (1.0 M PLP, time point 21): 64.3542 and 62.1042 and 63.8542; fluorescence (1.0 M PLP, time point 22): 3143 and 3037 and 3116; fluorescence normalised to probe only (1.0 M PLP, time point 22): 65.4792 and 63.2708 and 64.9167; fluorescence (1.0 M PLP, time point 23): 3195 and 3091 and 3165; fluorescence normalised to probe only (1.0 M PLP, time point 23): 66.5625 and 64.3958 and 65.9375; fluorescence (1.0 M PLP, time point 24): 3255 and 3150 and 3225; fluorescence normalised to probe only (1.0 M PLP, time point 24): 67.8125 and 65.625 and 67.1875; fluorescence (1.0 M PLP, time point 25): 3302 and 3185 and 3264; fluorescence normalised to probe only (1.0 M PLP, time point 25): 68.7917 and 66.3542 and 68; fluorescence (1.0 M PLP, time point 26): 3343 and 3213 and 3303; fluorescence normalised to probe only (1.0 M PLP, time point 26): 69.6458 and 66.9375 and 68.8125; fluorescence (1.0 M PLP, time point 27): 3374 and 3260 and 3349; fluorescence normalised to probe only (1.0 M PLP, time point 27): 70.2917 and 67.9167 and 69.7708; fluorescence (1.0 M PLP, time point 28): 3413 and 3284 and 3392; fluorescence normalised to probe only (1.0 M PLP, time point 28): 71.1042 and 68.4167 and 70.6667; fluorescence (1.0 M PLP, time point 29): 3459 and 3331 and 3423; fluorescence normalised to probe only (1.0 M PLP, time point 29): 72.0625 and 69.3958 and 71.3125; fluorescence (1.0 M PLP, time point 30): 3486 and 3350 and 3457; fluorescence normalised to probe only (1.0 M PLP, time point 30): 72.625 and 69.7917 and 72.0208; fluorescence (1.0 M PLP, time point 31): 3502 and 3381 and 3482; fluorescence normalised to probe only (1.0 M PLP, time point 31): 72.9583 and 70.4375 and 72.5417; fluorescence (1.0 M PLP, time point 32): 3532 and 3408 and 3501; fluorescence normalised to probe only (1.0 M PLP, time point 32): 73.5833 and 71 and 72.9375; fluorescence (1.0 M PLP, time point 33): 3565 and 3438 and 3531; fluorescence normalised to probe only (1.0 M PLP, time point 33): 74.2708 and 71.625 and 73.5625; fluorescence (1.0 M PLP, time point 34): 3583 and 3448 and 3552; fluorescence normalised to probe only (1.0 M PLP, time point 34): 74.6458 and 71.8333 and 74; fluorescence (1.0 M PLP, time point 35): 3605 and 3490 and 3574; fluorescence normalised to probe only (1.0 M PLP, time point 35): 75.1042 and 72.7083 and 74.4583; fluorescence (1.0 M PLP, time point 36): 3621 and 3506 and 3602; fluorescence normalised to probe only (1.0 M PLP, time point 36): 75.4375 and 73.0417 and 75.0417; fluorescence (1.0 M PLP, time point 37): 3636 and 3512 and 3605; fluorescence normalised to probe only (1.0 M PLP, time point 37): 75.75 and 73.1667 and 75.1042; fluorescence (1.0 M PLP, time point 38): 3654 and 3531 and 3628; fluorescence normalised to probe only (1.0 M PLP, time point 38): 76.125 and 73.5625 and 75.5833
